In patent publication US12653894B2, “Degradation of FAK or FAK and ALK by conjugation of FAK and ALK inhibitors with E3 ligase ligands and methods of use” (DANA-FARBER CANCER INSTITUTE, INC., priority 2018, dated 2026):
Some of these results come from one statement about several compounds together.

Amino acid sequences for entries named in this document (tags omitted).
UniProt Q05397, whole entry: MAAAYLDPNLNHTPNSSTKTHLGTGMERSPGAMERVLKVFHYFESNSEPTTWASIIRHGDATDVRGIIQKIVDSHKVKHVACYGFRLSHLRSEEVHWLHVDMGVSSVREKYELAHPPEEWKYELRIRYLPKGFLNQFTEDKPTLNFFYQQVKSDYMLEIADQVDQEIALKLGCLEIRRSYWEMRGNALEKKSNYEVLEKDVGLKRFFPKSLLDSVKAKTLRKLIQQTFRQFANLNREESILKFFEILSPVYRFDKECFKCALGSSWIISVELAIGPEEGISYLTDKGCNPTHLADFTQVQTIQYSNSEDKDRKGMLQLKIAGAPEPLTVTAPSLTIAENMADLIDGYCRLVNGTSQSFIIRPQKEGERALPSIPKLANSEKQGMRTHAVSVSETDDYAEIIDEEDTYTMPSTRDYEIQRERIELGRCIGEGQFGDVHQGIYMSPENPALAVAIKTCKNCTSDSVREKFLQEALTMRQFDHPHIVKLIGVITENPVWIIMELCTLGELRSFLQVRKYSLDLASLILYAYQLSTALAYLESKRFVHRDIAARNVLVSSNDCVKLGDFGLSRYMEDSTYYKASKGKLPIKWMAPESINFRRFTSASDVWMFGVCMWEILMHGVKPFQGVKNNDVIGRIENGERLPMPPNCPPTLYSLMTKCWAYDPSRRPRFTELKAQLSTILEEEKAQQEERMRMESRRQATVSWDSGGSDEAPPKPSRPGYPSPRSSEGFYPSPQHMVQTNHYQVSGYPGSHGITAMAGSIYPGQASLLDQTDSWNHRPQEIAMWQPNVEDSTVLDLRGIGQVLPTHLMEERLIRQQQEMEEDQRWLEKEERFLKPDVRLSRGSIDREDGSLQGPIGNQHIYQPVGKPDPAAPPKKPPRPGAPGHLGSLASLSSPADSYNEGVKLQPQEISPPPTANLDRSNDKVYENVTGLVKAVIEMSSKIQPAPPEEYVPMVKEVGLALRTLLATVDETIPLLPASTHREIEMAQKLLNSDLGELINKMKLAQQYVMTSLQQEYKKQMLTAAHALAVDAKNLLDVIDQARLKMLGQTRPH

Target: FAK (Homo sapiens, UniProt Q05397)
Experiment: FAK degradation by immunoblot in PA-TU-8988T cells
Type: cell-based
Set-up: endogenous in cells; host or cells: PA-TU-8988T
Settings: at 10 nM and 100 nM doses
Protocol: Immunoblotting for FAK was performed to evaluate changes in protein levels upon FAK degrader treatment. All samples were run with equal total protein content and immunoblotting was performed using antibodies that detect total FAK protein as well as GAPDH or α-Tubulin as a loading control. Fluorescently labelled infrared secondary antibodies that enable detection using an Odyssey® CLx Imager was employed to evaluate protein levels.
FAK degraders were evaluated in immunoblot assays to determine the effective dose required to achieve FAK protein loss. Immunoblots for FAK protein were normalized relative to the loading control and percent degradation was evaluated compared to DMSO treatment.

Percent FAK degradation, greater than 90%:
CNC(=O)c1ccccc1Nc1cc(Nc2ccc(N3CCN(CCCCCCCCNc4cccc5c4C(=O)N(C4CCC(=O)NC4=O)C5=O)CC3)cc2OC)ncc1C(F)(F)F (stereo not drawn) [Compound 6, 2-((2-((4-(4-(8-((2-(2,6-dioxopiperidin-3-yl)-1,3-dioxoisoindolin-4-yl)amino)octyl)piperazin-1-yl)-2-methoxyphenyl)amino)-5-(trifluoromethyl)pyridin-4-yl)amino)-N-methylbenzamide]
CNC(=O)c1ccccc1Nc1cc(Nc2ccc(N3CCN(CCCCCCCCNC(=O)CNc4cccc5c4C(=O)N(C4CCC(=O)NC4=O)C5=O)CC3)cc2OC)ncc1C(F)(F)F (stereo not drawn) [Compound 5, 2-((2-((4-(4-(8-(2-((2-(2,6-dioxopiperidin-3-yl)-1,3-dioxoisoindolin-4-yl)amino)acetamido)octyl)piperazin-1-yl)-2-methoxyphenyl)amino)-5-(trifluoromethyl)pyridin-4-yl)amino)-N-methylbenzamide]
CNC(=O)c1ccccc1Nc1cc(Nc2cc(C)c(C3CCN(CCCCCCNC(=O)COc4cccc5c4C(=O)N(C4CCC(=O)NC4=O)C5=O)CC3)cc2OC(C)C)ncc1C(F)(F)F (stereo not drawn) [Compound 9, 2-((2-((4-(1-(6-(2-((2-(2,6-dioxopiperidin-3-yl)-1,3-dioxoisoindolin-4-yl)oxy)acetamido)hexyl)piperidin-4-yl)-2-isopropoxy-5-methylphenyl)amino)-5-(trifluoromethyl)pyridin-4-yl)amino)-N-methylbenzamide]
